Some of the results follow.

The target of the test is T1, OsSMF1 (Oryza sativa, UniProt Q6ZLB0 1-436).
T1 sequence: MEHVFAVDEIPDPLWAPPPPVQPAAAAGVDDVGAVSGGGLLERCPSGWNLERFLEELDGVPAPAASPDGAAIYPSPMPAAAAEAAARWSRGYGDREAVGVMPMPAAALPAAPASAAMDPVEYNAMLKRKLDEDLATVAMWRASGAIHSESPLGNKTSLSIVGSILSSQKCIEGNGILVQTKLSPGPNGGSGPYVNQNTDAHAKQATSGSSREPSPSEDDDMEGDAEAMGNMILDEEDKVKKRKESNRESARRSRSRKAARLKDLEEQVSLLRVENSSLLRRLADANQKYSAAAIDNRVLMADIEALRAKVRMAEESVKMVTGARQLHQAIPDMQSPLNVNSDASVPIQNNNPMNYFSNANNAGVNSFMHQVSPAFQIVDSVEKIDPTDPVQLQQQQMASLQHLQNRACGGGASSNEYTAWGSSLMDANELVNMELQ
In words: protein-binding microarray (RPBM); PBS, 2% BSA, 51.3 ng/ul salmon testes DNA, 50 uM zinc acetate, 200 nM TF, 25 C, 1 h; high values mean tight binding. The following applies: protein: recombinant; tags: N-terminal polyhistidine and DsRed monomer fusion (pET32a); chain copies: 2; label: CyDye5-dUTP incorporated in the synthesized complementary strand; 3' TTTTT single-stranded linker to array surface; dsDNA, one strand shown. In outline: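 Binding signal here means per-feature fluorescence intensity in arbitrary units. The values were read on an Axon 4000B scanner after a custom Agilent array, double-stranded by primer extension with Cy5-dUTP, was incubated with 200 nM protein at 25 °C for 1 h in PBS with 2% BSA, salmon testes DNA and 50 µM zinc acetate, then washed. The proteins were transcription factors with an N-terminal polyhistidine tag and DsRed, expressed in E. coli BL21-CodonPlus and purified on Ni–NTA.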
Take “ATGCCACCACATGGCGTCGTCGTCATATAATGGGTAATCGCGGAGTCACCTAGTGCAG”: the binding signal is 4180 fluorescence intensity (a.u.). For “GTCGTCGTCGTCGTCACCGGGTCTTCGTCGAGACCCTGACCGGAGTCACCTAGTGCAG” the value was 3880 fluorescence intensity (a.u.); for “ATCCACATTGGCAGGCTCTAACCAGGAGATGCCACATCAGCGGAGTCACCTAGTGCAG”, 9610 fluorescence intensity (a.u.); for “AGTACGCTTTCTTACGTCACTGCTTACACGCCCGTGCGCGCGGAGTCACCTAGTGCAG”, 8770 fluorescence intensity (a.u.).

With “AGCACCAAAAGATGTCTGTTGGTATGGTTGACATGGCCAGCGGAGTCACCTAGTGCAG”, the binding signal was 5030 fluorescence intensity (a.u.).

For “TCTTCGCCACCGTCTGCATCGCGCCACCGCCGCCCTGCAGCGGAGTCACCTAGTGCAG”, the binding signal was 6650 fluorescence intensity (a.u.). As for “CCGAGCGAGCCGTGCCCGCTATAAGTTGGCCGCTGCGCTGCGGAGTCACCTAGTGCAG”, the binding signal was 11300 fluorescence intensity (a.u.).

“GGAAACCACTACACATTACTCCAGATTACCGATTCAACAGCGGAGTCACCTAGTGCAG”: the binding signal was 3200 fluorescence intensity (a.u.). As for “GCTTCCATCCTTCCAACGAATCCACGCCGTCCATTCGCCACGGAGTCACCTAGTGCAG”, the figure is 3400 fluorescence intensity (a.u.). Consider “CTTCTTCTTCTTCGCGGTGGCTGATCGATCAAAGTGAATTCGGAGTCACCTAGTGCAG”, for which the binding signal was 3660 fluorescence intensity (a.u.). As for “CGCCCCTTGCCGCTTGCCGCCTCGCCCGCTCGAGCTCATCCGGAGTCACCTAGTGCAG”, the figure is 3170 fluorescence intensity (a.u.); as for “ACTACAGTACTCCTCTCCCACTTGACCACCTCAGCTTCCTCGGAGTCACCTAGTGCAG”, 4790 fluorescence intensity (a.u.). As for “AAAGTGGTGTTTTAAAGGTGGCAAAACACGTAGATGGTCGCGGAGTCACCTAGTGCAG”, the figure is 3410 fluorescence intensity (a.u.); as for “TGCGTGCCGTGTTGCCGCGGTGGCGCGCTCCTGGAAGGCGCGGAGTCACCTAGTGCAG”, 5020 fluorescence intensity (a.u.).

Regarding “GCTCGCGAAAACCAGAATCGTAGTAGTAGGAGCAACGTGTCGGAGTCACCTAGTGCAG”, the binding signal is 3380 fluorescence intensity (a.u.). As for “CACACAAGGCCTGACCAGGCCTGGCCGTCATCTTCTTCTTCGGAGTCACCTAGTGCAG”, the binding signal was 3480 fluorescence intensity (a.u.). For “TTTTGTGCCTGCCTGAACACTCACTGAAAGACACGCTTCCCGGAGTCACCTAGTGCAG” the value was 4420 fluorescence intensity (a.u.); for “GTACAAGATTTTAATAAGTAAACTAGCTTGAGTGATGAGACGGAGTCACCTAGTGCAG”, 20200 fluorescence intensity (a.u.). As for “CGTTTTATTCTGTACTATCTCCGTCCCATAATAATTGTATCGGAGTCACCTAGTGCAG”, the binding signal is 21900 fluorescence intensity (a.u.). For “AGGGATACGCGTGTATATATGGCGCGGCCCGGCCAAAAGTCGGAGTCACCTAGTGCAG”, the binding signal is 5160 fluorescence intensity (a.u.). For “TCTGTACCAAACTCAATTTTAGAATTCAGAGATCCAATAACGGAGTCACCTAGTGCAG”, the binding signal is 40000 fluorescence intensity (a.u.).

With “AGAATTTAAAGCTCCTCAAACAGACCCTTAGTCACCTACCCGGAGTCACCTAGTGCAG”, the binding signal was 3880 fluorescence intensity (a.u.). As for “TAACTAATTATGTGTTAATTCATCTTTTCATTTACGTGTCCGGAGTCACCTAGTGCAG”, the figure is 3780 fluorescence intensity (a.u.).

(Values after publication PMC7819943, “Rice protein-binding microarrays: a tool to detect cis-acting elements near promoter regions in rice”.)
